# Percent effect of library compounds

Sequences of proteins named here, by UniProt entry; tags and fusion partners are left off. Residues count along the entry.
UniProt Q8IDJ8, 1-583: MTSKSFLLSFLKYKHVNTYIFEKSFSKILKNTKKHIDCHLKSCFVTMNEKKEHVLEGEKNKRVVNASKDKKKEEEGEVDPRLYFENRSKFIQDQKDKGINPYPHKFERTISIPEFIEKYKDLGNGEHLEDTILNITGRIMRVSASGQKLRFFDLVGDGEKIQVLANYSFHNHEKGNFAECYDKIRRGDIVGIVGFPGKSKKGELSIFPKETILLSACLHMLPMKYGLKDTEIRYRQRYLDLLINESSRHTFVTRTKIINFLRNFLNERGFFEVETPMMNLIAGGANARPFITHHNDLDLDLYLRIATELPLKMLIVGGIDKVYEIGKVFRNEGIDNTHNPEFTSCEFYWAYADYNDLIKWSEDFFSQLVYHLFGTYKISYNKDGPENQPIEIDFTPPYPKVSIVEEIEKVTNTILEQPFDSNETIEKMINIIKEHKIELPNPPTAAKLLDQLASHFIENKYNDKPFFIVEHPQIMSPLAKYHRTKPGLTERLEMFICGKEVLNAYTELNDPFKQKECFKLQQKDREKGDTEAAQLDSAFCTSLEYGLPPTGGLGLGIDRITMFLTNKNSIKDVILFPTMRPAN
UniProt I6X8D2, whole entry: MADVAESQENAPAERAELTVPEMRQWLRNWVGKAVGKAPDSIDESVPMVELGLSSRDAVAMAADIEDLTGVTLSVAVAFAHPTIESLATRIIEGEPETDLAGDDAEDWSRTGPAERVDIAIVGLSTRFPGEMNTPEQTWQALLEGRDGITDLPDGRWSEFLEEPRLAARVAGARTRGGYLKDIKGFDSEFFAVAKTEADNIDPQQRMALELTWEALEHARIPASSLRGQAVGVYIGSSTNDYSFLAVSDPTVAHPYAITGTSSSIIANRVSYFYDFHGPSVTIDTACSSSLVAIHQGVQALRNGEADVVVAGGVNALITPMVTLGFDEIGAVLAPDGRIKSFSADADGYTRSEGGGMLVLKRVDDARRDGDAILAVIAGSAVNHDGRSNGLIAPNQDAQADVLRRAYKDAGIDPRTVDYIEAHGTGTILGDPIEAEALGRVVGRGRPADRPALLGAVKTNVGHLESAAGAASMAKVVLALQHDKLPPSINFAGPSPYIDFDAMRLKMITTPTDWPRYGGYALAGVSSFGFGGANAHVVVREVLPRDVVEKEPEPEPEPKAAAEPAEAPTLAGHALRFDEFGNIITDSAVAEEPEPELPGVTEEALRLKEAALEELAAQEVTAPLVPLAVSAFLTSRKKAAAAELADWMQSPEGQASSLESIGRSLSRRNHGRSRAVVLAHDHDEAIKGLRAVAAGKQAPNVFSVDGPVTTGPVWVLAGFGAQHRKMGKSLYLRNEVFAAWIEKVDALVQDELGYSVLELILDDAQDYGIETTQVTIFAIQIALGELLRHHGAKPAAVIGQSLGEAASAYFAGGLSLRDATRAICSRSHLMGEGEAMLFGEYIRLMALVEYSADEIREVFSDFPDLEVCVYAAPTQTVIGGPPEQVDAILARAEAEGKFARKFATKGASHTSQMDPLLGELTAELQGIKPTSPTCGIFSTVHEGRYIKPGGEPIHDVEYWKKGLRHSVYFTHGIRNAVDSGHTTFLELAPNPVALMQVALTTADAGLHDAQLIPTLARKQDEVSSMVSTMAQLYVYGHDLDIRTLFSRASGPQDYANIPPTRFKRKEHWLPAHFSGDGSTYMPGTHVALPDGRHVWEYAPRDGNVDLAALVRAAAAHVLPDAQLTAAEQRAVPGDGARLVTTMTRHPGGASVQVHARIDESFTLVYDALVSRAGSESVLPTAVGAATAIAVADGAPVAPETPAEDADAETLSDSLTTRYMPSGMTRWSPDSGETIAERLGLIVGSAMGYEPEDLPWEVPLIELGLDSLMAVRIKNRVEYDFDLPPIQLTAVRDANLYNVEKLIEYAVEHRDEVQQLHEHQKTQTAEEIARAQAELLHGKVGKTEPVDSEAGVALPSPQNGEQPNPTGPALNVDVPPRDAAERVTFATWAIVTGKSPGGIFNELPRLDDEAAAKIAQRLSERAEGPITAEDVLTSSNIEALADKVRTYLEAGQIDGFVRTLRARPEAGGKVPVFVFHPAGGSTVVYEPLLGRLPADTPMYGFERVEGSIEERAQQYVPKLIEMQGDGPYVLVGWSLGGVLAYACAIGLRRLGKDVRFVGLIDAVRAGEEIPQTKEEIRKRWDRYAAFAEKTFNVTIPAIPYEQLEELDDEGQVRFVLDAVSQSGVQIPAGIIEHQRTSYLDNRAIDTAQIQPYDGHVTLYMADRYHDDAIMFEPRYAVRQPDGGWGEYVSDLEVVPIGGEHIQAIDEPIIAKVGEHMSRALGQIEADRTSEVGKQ
UniProt P9WFT3, whole entry: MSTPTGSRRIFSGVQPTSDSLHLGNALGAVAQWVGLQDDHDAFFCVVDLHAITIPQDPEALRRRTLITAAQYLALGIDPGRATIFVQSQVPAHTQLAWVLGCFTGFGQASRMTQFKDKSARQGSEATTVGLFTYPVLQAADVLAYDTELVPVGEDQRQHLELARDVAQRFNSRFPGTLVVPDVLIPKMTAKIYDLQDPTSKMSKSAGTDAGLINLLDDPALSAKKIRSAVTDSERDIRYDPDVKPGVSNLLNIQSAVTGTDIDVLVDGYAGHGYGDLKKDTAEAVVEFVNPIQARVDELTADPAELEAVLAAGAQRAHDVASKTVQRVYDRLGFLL
UniProt Q4DA54, 1-478: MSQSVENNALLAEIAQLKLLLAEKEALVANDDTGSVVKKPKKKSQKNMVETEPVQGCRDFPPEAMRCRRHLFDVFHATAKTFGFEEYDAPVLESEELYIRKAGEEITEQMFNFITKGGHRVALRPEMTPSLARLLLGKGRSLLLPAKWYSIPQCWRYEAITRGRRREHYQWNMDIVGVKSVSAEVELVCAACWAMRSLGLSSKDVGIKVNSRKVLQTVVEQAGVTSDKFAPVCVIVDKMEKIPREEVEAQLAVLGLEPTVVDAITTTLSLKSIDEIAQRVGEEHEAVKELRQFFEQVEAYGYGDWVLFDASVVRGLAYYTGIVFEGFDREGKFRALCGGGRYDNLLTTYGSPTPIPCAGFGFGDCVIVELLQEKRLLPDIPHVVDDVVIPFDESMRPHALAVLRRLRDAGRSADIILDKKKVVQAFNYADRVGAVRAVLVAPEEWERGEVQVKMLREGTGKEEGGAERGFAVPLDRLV

The values are deposited in ChEMBL (CHEMBL3988442, “University of Dundee, Small-Polar-MMV Screening Library” (2021)).

PfKRS1: 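Enzyme assay of the cytosolic lysyl-tRNA synthetase in 384-well plates, read by luminescence. Target: Lysine-tRNA ligase, Plasmodium falciparum 3D7 (UniProt Q8IDJ8). Compounds at 30 µM. Direction is inferred from only a few compounds that gave an IC50; most scored high, so higher reads as stronger inhibition. Size under these conditions: about 69,000 compounds, about 49 of them at 50% or above in at least one test.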
Pks13 thioesterase: 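Enzyme assay of the thioesterase domain of polyketide synthase 13; the read-out is not stated. Target: Polyketide synthase Pks13, Mycobacterium tuberculosis (UniProt I6X8D2). Compounds at 30 µM. The record gives no direction; the compounds picked for IC50 retests had high values, so higher reads as stronger inhibition. Of about 67,000 compounds tested this way, about 300 (0.46%) reached 50% or more in at least one test.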
MtTrpRS: 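Enzyme assay of tryptophanyl-tRNA synthetase; the read-out is not stated. Target: Tryptophan-tRNA ligase, Mycobacterium tuberculosis (UniProt P9WFT3). Tested at 10 µM. Higher most likely means stronger inhibition; the record gives no direction and few retests gave an IC50. Size under these conditions: about 65,000 compounds, about 64 of them at 50% or above in at least one test.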
TcHisRS: 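Enzyme assay of histidyl-tRNA synthetase; the read-out is not stated. Target: Histidine-tRNA ligase, Trypanosoma cruzi CL Brener (UniProt Q4DA54). Compounds at 30 µM. The record gives no direction; compounds that gave an IC50 in retests scored well above the rest, so higher reads as stronger inhibition. Size under these conditions: about 69,000 compounds, about 31 of them at 50% or above in at least one test.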

Each number is a percent effect as filed.
The controls that fix the scale are not given in the record; negative values are as filed.
Compounds were drawn at random from those tested, without regard to their results.
A dash means the value is not listed here; it may have been measured.

structure	PfKRS1	Pks13 thioesterase	MtTrpRS	TcHisRS
COc1ncccc1NC(=O)N(Cc1ccccn1)C1CC1	2.725%	1.372%	3.916%	-1.143%
O=C(C1NCCc2[nH]cnc21)N1CCC2(CC1)CNc1ccccc12 (configuration not stated)	6.787%	-23.85%	1.771%	13.6%
CC(=O)N1CCC2(CC1)CC(Oc1ccccc1)CO2 (configuration not stated)	4.608%	-10.08%	-2.385%	3.306%
Cc1ccc(-c2cc(CNC(=O)N3CCC(CO)CC3)on2)cc1	-1.694%	1.934%	-3.79%	3.448%
O=C1N(CCO)CCCC12CCN(Cc1nnc(C3CC3)o1)C2 (configuration not stated)	7.712%	-13.06%	-2.764%	-0.8%
CN(Cc1nnc(C2CCC2)o1)C(C(N)=O)c1cccc(F)c1 (configuration not stated)	5.754%	-1.813%	2.931%	8.537%
O=C(NCc1nn(-c2ccccc2)c2c1CCC2)N1CCCC(O)C1 (configuration not stated)	-0.0934%	-16.49%	0.832%	7.059%
Cc1ccc(CN2CC[C@H]3[C@H]2CCN3S(=O)(=O)C2CC2)s1	1.291%	-24.49%	-9.332%	4.598%
COc1cc(C(=O)O)ccc1OCC(=O)NC(C)c1ccc(F)cc1 (configuration not stated)	4.558%	-7.861%	-1.385%	7.407%
Cc1n[nH]c(C)c1S(=O)(=O)N1CCC(Oc2cnccn2)CC1	1.845%	7.067%	-1.698%	2.308%
Cc1ncc(S(C)(=O)=O)c(N2Cc3ccccc3C2)n1	7.008%	6.04%	7.352%	3.784%
Cc1nc(CN2CCC2(CCCc2ccccn2)C(=O)N(C)C)co1 (configuration not stated)	-0.5116%	0.6028%	1.057%	8.046%
Cc1cccc(CN(C(=O)CCn2cncn2)C(C)C)c1	1.378%	-1.684%	0%	2.062%
Cc1noc([C@H]2C[C@H]3CN(C(=O)C4CCOCC4)CC[C@@H]3O2)n1	3.53%	-	-6.008%	10.84%
COCc1cc(CNCc2c(C)n(CC(C)C)c3ccccc23)n[nH]1	4.573%	-3.625%	5.417%	0.5181%
Cc1cccc(C(=O)N2C[C@@H](OCc3ccncc3)[C@@H]3OCCC[C@@H]32)n1	5.727%	-0.6835%	1.383%	2.439%
CN(CCc1ccccn1)C(=O)CCC1CCCN(S(C)(=O)=O)C1 (configuration not stated)	6.087%	-4.114%	-5.946%	4%
CC(C(=O)NCCCN1CCCCCC1=O)n1cncn1 (configuration not stated)	-0.7899%	-2.192%	-1.462%	-2.273%
CNc1nc(C(=O)N2CCN(c3cc(C)nc(C)c3)CC2)cs1	1.281%	-21.96%	1.723%	3.483%
CNS(=O)(=O)c1ccc(C(=O)N2CCCC2c2cnn(C)c2)o1 (configuration not stated)	-3.471%	-7.967%	3.021%	-1.515%
CCCc1cncnc1N1CCC(NCCc2nc(O)cc(O)n2)CC1	6.085%	-31.96%	-3.199%	4.433%
CCc1nc(C(=O)N2CCN(CC)CC2)nn1-c1ccccc1Cl	-0.07938%	-23.92%	6.895%	3.468%
O=C(CO)N1CC[C@@H](N2CCN(c3ccccc3F)CC2)[C@H](O)C1	3.229%	-2.255%	4.901%	11.45%
C[S+]([O-])c1cccc(NC(=O)N(CCC#N)Cc2ccccn2)c1 (configuration not stated)	-1.816%	-25.88%	3.665%	-1.571%
O=C(O)CCn1ccc(=O)c2cc(F)ccc21	1.652%	4.294%	3.254%	-2.484%
CC(SCC(=O)N(C)CC(=O)NC1CC1)c1ccccc1F (configuration not stated)	5.748%	-35.15%	-3.644%	1.293%
CNC(=O)[C@@H]1C[C@@H](NC(=O)Cc2cccs2)CN1C1CCOCC1	3.626%	-6.846%	-4.123%	1.117%
O=C(C1CCOCC1)N1CCO[C@H]2[C@H](Oc3ccccn3)CC[C@@H]21	-3.104%	-32.14%	3.563%	3.061%
COc1ccc(Cn2c(Cc3c(C)n[nH]c3C)n[nH]c2=O)cc1	6.043%	-13.16%	-1.698%	3.704%
CNC(=O)CNC(=O)Nc1ccc(Br)c(F)c1	3.051%	20.24%	-0.7333%	3.922%
CCN(c1ccc(C(=O)NCc2ccnc(C)n2)cc1)C(C)C	5.072%	-2.016%	-8.309%	4.211%
CN1C(=O)C2(CC(=O)Nc3[nH]ncc32)c2ccc(F)cc21 (configuration not stated)	-1.545%	-8.355%	1.704%	1.22%
Cc1cc(NC(=O)CN2CCCC(Cn3cncn3)C2)on1 (configuration not stated)	0.3013%	-42.99%	1.342%	9.091%

The first 3 entries again:

* COc1ncccc1NC(=O)N(Cc1ccccn1)C1CC1 | PfKRS1: 2.725%; Pks13 thioesterase: 1.372%; MtTrpRS: 3.916%; TcHisRS: -1.143%
* O=C(C1NCCc2[nH]cnc21)N1CCC2(CC1)CNc1ccccc12 (configuration not stated) | PfKRS1: 6.787%; Pks13 thioesterase: -23.85%; MtTrpRS: 1.771%; TcHisRS: 13.6%
* CC(=O)N1CCC2(CC1)CC(Oc1ccccc1)CO2 (configuration not stated) | PfKRS1: 4.608%; Pks13 thioesterase: -10.08%; MtTrpRS: -2.385%; TcHisRS: 3.306%